Results are given in words; binding and its absence hold for the method and conditions named.
Molecular target: T1, β-CT (yeast two-hybrid) (Arabidopsis thaliana) (UniProt P56765)
T1 sequence: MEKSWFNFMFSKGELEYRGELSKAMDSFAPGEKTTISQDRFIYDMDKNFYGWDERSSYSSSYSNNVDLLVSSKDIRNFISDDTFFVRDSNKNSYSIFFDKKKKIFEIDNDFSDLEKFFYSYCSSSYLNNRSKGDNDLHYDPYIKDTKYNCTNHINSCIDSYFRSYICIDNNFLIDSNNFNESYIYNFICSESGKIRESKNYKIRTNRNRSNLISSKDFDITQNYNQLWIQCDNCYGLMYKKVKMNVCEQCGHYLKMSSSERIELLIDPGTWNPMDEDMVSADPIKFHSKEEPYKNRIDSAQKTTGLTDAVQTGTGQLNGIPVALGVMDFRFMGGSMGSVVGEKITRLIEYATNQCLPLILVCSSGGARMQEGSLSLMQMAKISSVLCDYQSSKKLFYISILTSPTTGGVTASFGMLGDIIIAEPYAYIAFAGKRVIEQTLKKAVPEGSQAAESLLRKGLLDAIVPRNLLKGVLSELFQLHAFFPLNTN
Assay: two-hybrid; oriented assays: CTI coiled-coil domains in pGADT7, α-CT in pGBKT7, strain AH109, SD-LWH with 1 mM 3-amino-1,2,4-triazole, 30 °C

binding	Substance
no binding	coiled-coil-containing C-terminus of CTI1 (targeted yeast two-hybrid) (Arabidopsis thaliana) (domain or fragment)
no binding	coiled-coil domain of CTI3 (targeted yeast two-hybrid) (Arabidopsis thaliana) (domain or fragment)
no binding	coiled-coil domain of CTI2 (targeted yeast two-hybrid) (Arabidopsis thaliana) (domain or fragment)

— publication PMC7712654
